From the supplement of paper PMC6411743
± gives the standard deviation of the averaged measurements. The list shows a part of the results.

Sequences of proteins named here, by UniProt entry; tags and fusion partners are left off. A change or cut given only in a name is not applied to a line headed by its entry.
UniProt Q8WWY3: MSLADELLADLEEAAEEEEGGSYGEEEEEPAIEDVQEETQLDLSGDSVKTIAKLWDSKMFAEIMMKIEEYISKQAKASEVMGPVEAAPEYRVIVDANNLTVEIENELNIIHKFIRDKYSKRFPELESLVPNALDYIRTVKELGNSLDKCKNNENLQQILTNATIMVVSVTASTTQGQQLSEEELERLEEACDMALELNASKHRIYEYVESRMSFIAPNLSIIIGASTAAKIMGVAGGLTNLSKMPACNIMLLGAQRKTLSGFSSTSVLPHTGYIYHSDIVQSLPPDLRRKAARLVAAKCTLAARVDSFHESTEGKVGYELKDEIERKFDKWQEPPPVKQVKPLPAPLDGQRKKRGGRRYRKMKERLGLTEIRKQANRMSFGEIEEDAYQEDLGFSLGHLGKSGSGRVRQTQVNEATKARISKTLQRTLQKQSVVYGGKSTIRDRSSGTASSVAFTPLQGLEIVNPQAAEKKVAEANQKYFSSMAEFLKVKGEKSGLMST
UniProt Q96EV8: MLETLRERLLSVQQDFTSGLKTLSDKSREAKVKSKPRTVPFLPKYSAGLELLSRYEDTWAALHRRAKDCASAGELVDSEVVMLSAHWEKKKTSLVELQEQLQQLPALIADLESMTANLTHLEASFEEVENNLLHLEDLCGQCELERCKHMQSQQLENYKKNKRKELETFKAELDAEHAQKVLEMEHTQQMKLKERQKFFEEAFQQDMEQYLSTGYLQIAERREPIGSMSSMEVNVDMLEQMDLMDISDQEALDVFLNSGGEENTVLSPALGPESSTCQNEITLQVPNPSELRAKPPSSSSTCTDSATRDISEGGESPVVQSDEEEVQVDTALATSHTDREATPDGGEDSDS
UniProt Q96BW5: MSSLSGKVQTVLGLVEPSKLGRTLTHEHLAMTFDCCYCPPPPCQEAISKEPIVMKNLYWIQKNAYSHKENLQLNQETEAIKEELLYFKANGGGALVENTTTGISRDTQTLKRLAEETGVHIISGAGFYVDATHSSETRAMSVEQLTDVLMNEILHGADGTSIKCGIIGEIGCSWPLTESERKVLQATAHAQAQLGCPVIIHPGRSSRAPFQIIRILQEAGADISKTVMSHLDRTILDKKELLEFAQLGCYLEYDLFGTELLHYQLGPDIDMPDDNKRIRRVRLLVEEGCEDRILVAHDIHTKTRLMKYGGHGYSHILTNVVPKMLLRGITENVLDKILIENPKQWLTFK
UniProt Q96GK7: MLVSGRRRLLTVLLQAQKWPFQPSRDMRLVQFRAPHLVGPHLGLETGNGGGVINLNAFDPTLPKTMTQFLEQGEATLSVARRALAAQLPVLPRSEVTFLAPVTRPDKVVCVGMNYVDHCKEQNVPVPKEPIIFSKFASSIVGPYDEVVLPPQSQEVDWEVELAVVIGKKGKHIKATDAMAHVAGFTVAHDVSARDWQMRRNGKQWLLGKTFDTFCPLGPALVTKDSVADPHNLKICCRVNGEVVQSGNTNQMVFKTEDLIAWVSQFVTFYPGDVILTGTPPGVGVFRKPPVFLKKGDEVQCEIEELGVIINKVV
UniProt Q96G74: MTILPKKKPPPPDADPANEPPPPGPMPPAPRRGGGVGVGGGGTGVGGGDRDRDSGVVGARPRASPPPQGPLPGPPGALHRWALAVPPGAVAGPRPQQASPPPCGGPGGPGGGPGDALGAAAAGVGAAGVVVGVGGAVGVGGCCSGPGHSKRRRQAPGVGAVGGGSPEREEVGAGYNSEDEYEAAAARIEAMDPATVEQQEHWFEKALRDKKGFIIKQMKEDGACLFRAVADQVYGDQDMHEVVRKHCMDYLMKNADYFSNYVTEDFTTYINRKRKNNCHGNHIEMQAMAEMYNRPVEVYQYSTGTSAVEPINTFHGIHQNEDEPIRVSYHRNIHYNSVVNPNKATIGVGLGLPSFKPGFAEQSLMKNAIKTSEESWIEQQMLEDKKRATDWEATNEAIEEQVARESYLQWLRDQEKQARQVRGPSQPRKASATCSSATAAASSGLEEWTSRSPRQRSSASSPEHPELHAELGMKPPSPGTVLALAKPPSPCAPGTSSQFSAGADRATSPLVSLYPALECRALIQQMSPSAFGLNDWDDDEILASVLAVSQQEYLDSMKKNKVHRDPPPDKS
UniProt Q96GX9: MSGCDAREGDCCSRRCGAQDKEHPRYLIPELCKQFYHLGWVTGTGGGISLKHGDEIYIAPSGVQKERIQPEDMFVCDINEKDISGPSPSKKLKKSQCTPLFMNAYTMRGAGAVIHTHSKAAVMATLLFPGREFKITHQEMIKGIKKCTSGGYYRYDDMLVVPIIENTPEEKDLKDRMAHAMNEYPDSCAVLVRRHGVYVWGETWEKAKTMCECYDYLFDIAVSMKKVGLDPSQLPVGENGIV
UniProt Q92643: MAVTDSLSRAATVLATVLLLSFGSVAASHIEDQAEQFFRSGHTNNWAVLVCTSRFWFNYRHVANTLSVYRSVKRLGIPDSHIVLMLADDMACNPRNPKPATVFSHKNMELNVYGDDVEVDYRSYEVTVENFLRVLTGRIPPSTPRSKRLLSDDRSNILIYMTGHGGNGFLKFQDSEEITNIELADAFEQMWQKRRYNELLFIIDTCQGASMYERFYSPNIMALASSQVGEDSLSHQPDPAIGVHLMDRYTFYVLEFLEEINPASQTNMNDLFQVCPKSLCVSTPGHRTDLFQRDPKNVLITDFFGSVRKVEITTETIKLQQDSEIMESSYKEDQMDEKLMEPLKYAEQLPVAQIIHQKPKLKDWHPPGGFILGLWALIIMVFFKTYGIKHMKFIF
UniProt Q8WUR7: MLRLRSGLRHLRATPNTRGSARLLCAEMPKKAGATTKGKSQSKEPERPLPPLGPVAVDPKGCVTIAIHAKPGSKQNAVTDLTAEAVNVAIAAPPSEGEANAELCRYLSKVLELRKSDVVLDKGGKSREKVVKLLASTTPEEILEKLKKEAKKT
UniProt Q92673: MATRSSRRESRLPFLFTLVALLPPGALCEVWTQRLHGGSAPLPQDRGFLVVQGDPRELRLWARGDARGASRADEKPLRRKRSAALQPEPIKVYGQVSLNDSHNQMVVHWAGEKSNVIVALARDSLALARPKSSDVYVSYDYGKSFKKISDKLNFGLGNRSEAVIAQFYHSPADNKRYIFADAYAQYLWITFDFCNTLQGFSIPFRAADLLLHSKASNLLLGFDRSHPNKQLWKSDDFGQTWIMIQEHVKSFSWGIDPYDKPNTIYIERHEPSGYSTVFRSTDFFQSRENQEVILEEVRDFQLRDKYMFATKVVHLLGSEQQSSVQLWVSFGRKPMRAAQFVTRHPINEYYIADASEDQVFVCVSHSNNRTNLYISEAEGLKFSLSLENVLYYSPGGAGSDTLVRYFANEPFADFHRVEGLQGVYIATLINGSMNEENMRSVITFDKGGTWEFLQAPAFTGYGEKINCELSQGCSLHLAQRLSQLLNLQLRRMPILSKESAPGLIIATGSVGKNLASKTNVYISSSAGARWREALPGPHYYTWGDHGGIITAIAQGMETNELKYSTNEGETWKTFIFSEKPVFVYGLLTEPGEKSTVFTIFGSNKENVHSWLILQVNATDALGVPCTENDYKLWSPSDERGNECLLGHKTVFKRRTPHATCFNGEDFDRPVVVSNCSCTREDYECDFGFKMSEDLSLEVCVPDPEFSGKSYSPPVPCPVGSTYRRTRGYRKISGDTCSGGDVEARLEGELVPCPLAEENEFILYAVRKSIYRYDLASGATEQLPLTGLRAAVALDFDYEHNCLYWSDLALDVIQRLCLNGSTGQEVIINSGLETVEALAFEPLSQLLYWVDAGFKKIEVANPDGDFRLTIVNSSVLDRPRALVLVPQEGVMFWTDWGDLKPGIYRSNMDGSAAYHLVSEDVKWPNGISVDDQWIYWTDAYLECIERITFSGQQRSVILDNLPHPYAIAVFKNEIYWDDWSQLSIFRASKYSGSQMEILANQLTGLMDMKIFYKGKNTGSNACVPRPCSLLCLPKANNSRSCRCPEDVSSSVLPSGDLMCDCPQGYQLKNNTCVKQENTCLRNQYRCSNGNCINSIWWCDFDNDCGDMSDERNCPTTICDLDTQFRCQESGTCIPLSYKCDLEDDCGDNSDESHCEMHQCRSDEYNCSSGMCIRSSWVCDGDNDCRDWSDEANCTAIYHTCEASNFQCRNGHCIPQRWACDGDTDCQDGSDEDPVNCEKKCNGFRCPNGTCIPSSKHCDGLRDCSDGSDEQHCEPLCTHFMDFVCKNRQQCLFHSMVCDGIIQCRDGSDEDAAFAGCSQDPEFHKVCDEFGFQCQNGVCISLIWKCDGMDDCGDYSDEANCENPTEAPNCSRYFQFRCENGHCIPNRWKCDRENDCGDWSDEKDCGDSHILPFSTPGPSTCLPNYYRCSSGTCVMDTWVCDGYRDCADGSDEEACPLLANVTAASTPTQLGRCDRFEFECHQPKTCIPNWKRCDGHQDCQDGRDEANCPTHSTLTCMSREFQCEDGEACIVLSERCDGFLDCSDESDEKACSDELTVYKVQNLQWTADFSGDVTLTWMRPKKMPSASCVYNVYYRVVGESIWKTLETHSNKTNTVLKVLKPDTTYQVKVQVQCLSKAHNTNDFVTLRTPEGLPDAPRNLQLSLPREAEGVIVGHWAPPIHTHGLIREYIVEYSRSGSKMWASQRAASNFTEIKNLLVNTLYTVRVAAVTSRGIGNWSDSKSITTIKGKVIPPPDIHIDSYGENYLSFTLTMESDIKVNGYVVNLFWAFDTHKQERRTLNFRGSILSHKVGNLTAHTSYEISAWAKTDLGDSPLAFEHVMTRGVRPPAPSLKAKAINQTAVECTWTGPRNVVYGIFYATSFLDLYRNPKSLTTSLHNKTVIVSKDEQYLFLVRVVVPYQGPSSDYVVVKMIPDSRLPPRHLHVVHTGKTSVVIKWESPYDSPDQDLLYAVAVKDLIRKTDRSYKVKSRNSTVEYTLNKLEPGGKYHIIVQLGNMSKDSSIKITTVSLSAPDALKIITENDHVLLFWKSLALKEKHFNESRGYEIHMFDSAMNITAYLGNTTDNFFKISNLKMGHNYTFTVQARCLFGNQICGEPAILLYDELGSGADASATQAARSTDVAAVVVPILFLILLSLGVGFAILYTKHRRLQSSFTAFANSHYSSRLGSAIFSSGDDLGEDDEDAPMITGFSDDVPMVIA
UniProt Q96JH7: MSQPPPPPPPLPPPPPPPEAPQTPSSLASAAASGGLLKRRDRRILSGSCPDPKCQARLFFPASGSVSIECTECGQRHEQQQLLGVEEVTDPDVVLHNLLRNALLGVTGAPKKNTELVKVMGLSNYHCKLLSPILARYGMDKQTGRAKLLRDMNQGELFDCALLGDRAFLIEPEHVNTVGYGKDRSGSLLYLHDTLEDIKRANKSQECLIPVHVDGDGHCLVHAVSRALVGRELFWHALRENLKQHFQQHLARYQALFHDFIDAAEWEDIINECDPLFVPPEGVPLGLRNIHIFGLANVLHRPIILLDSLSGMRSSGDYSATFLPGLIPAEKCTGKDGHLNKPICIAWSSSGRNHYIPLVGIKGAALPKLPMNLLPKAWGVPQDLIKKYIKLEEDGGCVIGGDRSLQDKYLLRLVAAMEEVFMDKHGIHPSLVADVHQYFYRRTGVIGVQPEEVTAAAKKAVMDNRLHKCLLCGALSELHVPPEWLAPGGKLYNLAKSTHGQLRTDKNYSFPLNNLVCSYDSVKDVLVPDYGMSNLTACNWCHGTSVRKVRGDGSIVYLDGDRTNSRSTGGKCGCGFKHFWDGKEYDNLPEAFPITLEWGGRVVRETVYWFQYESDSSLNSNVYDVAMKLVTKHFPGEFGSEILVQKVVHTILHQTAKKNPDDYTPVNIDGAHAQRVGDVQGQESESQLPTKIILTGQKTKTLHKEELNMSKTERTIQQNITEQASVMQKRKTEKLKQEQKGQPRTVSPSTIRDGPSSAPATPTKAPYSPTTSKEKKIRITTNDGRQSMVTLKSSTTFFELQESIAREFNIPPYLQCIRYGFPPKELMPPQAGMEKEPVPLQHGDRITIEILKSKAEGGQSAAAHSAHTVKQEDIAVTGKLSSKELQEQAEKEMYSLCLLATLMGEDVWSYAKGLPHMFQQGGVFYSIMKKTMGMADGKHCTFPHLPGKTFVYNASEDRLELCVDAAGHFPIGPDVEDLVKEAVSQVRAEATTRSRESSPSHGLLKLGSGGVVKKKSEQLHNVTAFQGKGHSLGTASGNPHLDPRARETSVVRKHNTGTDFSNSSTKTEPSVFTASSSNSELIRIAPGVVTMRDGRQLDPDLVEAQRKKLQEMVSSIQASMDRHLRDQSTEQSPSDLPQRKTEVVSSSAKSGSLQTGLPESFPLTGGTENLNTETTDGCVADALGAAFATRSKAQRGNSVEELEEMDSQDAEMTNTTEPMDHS
UniProt Q92506: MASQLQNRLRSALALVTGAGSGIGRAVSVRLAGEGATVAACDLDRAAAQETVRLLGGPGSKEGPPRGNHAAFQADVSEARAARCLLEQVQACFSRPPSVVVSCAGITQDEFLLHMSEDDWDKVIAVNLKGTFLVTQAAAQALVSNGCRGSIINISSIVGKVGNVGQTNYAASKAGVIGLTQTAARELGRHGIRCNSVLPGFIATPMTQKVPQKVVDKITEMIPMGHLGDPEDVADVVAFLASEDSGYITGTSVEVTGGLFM

Compound: Nc1nc2c(ncn2[C@@H]2O[C@H](COP(=O)(O)OP(=O)(O)OP(=O)(O)O)[C@@H](O)[C@H]2O)c(=O)[nH]1 [guanosine triphosphate]
Assay: NP40-soluble protein abundance relative to vehicle (solubility fold change) (ratio); higher = more soluble protein in presence of GTP
Summary of the method: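 Eight concentrations, 0.1 to 10 mM, were tested on Jurkat crude lysate for 10 min at room temperature and then 3 min at 37 °C, in three independent experiments. The lysate was solubilised with 0.8% NP40 and benzonase, ultracentrifuged, and the supernatant TMT-labelled for LC-MS/MS. Each value is the fold change against the detergent-processed vehicle in its own replicate, from vsn-normalised intensities.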

Target	NP40-soluble protein abundance (concentration: 0.1mM)	NP40-soluble protein abundance (concentration: 0.5mM)	NP40-soluble protein abundance (concentration: 1mM)	NP40-soluble protein abundance (concentration: 2mM)	NP40-soluble protein abundance (concentration: 4mM)	NP40-soluble protein abundance (concentration: 6mM)	NP40-soluble protein abundance (concentration: 8mM)	NP40-soluble protein abundance (concentration: 10mM)
PRPF31 (UniProt Q8WWY3)	1.01 ± 0.072	1.06 ± 0.057	1.06 ± 0.073	1.06 ± 0.11	1.07 ± 0.081	1.11 ± 0.077	1.1 ± 0.048	1.18 ± 0.092
DDX1 (UniProt Q92499)	1.02 ± 0.024	1.02 ± 0.066	0.941 ± 0.027	0.971 ± 0.072	0.997 ± 0.059	0.993 ± 0.063	0.971 ± 0.013	0.961 ± 0.038
UniProt Q92804 and related entries	0.976 ± 0.03	1.048 ± 0.0095	1.18 ± 0.09	1.35 ± 0.14	1.56 ± 0.22	1.73 ± 0.28	2.08 ± 0.35	2.59 ± 0.54
UniProt Q96DU3 and related entries	0.991 ± 0.081	0.918 ± 0.077	0.966 ± 0.057	0.979 ± 0.077	1.07 ± 0.16	0.983 ± 0.02	0.988 ± 0.11	1 ± 0.053
UniProt Q96EV8 and related entries	0.969 ± 0.067	0.934 ± 0.099	0.986 ± 0.079	0.901 ± 0.07	0.932 ± 0.17	0.892 ± 0.054	0.947 ± 0.12	0.882 ± 0.1
TRMT61A (UniProt Q96FX7)	1.06 ± 0.077	1.07 ± 0.069	1.01 ± 0.093	1.06 ± 0.051	1.03 ± 0.051	1 ± 0.07	0.999 ± 0.15	0.994 ± 0.061
UniProt Q96II8 and related entries	0.997 ± 0.053	1.04 ± 0.025	1.05 ± 0.016	1.08 ± 0.068	1.06 ± 0.091	1.1 ± 0.071	1.11 ± 0.022	1.07 ± 0.047
NARS2 (UniProt Q96I59)	1 ± 0.074	1.02 ± 0.084	0.883 ± 0.04	0.907 ± 0.092	0.856 ± 0.083	0.871 ± 0.055	0.85 ± 0.024	0.792 ± 0.098
UniProt Q96BW5 and related entries	1.01 ± 0.024	0.973 ± 0.039	0.933 ± 0.04	0.897 ± 0.027	0.899 ± 0.019	0.89 ± 0.051	0.89 ± 0.013	0.84 ± 0.027
KBTBD7 (UniProt Q8WVZ9)	1.15 ± 0.12	1.12 ± 0.16	1.09 ± 0.13	1.11 ± 0.15	1.08 ± 0.14	1.03 ± 0.14	1.06 ± 0.16	1.01 ± 0.1
FAHD2A (UniProt Q96GK7)	1.12 ± 0.13	1.04 ± 0.077	0.951 ± 0.078	0.926 ± 0.08	0.981 ± 0.087	0.981 ± 0.066	0.989 ± 0.13	0.872 ± 0.055
UniProt Q92616	1.04 ± 0.041	1.06 ± 0.072	1.04 ± 0.067	1.06 ± 0.1	1.06 ± 0.1	1.02 ± 0.1	0.998 ± 0.081	0.969 ± 0.059
UniProt Q92636 and related entries	1.09 ± 0.085	1.09 ± 0.1	0.972 ± 0.12	1.03 ± 0.11	0.951 ± 0.096	0.949 ± 0.062	0.912 ± 0.059	0.998 ± 0.12
UniProt Q969G3 and related entries	0.861 ± 0.11	0.864 ± 0.082	1.23 ± 0.26	1.22 ± 0.17	1.18 ± 0.21	1.22 ± 0.2	1.19 ± 0.27	1.36 ± 0.41
UniProt Q96G74 and related entries	0.952 ± 0.073	0.968 ± 0.073	1.03 ± 0.065	0.998 ± 0.099	0.976 ± 0.088	0.985 ± 0.11	0.991 ± 0.043	0.975 ± 0.044
UniProt Q8WXA9-2	1.02 ± 0.067	1.11 ± 0.044	1.14 ± 0.077	1.12 ± 0.082	1.15 ± 0.067	1.11 ± 0.07	1.18 ± 0.035	1.18 ± 0.1
UniProt Q96GX9 and related entries	0.981 ± 0.029	0.991 ± 0.035	0.965 ± 0.021	0.957 ± 0.038	0.935 ± 0.033	0.928 ± 0.018	0.929 ± 0.011	0.911 ± 0.025
JARID2 (UniProt Q92833)	0.971 ± 0.078	1.07 ± 0.11	1.09 ± 0.088	1.08 ± 0.087	1.05 ± 0.04	1.05 ± 0.088	1.18 ± 0.04	1.15 ± 0.026
PIGK (UniProt Q92643)	1.04 ± 0.048	1.09 ± 0.086	0.977 ± 0.047	0.997 ± 0.066	1 ± 0.054	0.983 ± 0.1	0.934 ± 0.075	0.876 ± 0.015
UniProt Q96BY6-3|Q96BY6	1.06 ± 0.09	1.09 ± 0.11	1.02 ± 0.12	1.07 ± 0.14	1.06 ± 0.12	1.05 ± 0.12	1.03 ± 0.12	1.01 ± 0.11
C15orf40 (UniProt Q8WUR7)	1.02 ± 0.1	1.02 ± 0.084	1.03 ± 0.034	1.05 ± 0.12	1.04 ± 0.13	1.01 ± 0.097	1.11 ± 0.061	1.17 ± 0.12
UniProt Q96JG6	1.05 ± 0.059	1.04 ± 0.039	1.02 ± 0.061	1 ± 0.013	1.02 ± 0.044	1.04 ± 0.025	1.01 ± 0.019	0.964 ± 0.012
SORL1 (UniProt Q92673)	0.966 ± 0.027	0.961 ± 0.059	0.974 ± 0.031	0.99 ± 0.081	1.01 ± 0.036	0.948 ± 0.053	0.966 ± 0.025	0.992 ± 0.078
UniProt Q96BR5	0.969 ± 0.051	0.95 ± 0.056	0.955 ± 0.055	0.928 ± 0.065	0.933 ± 0.072	0.929 ± 0.071	0.948 ± 0.05	0.934 ± 0.065
VCPIP1 (UniProt Q96JH7)	1.02 ± 0.016	1.07 ± 0.036	1.07 ± 0.025	1.08 ± 0.036	1.062 ± 0.0062	1.04 ± 0.039	1.04 ± 0.059	1.04 ± 0.017
STYX (UniProt Q8WUJ0)	1.07 ± 0.13	0.903 ± 0.12	0.962 ± 0.043	0.88 ± 0.024	0.826 ± 0.092	0.869 ± 0.16	0.966 ± 0.047	0.876 ± 0.082
HSD17B8 (UniProt Q92506)	0.925 ± 0.092	0.976 ± 0.1	0.9 ± 0.096	0.946 ± 0.069	0.893 ± 0.11	0.871 ± 0.082	0.848 ± 0.062	0.899 ± 0.066
GCC1 (UniProt Q96CN9)	1.04 ± 0.083	0.994 ± 0.11	0.994 ± 0.093	0.974 ± 0.087	0.997 ± 0.074	1.03 ± 0.089	0.969 ± 0.083	1.03 ± 0.061
TMEM263 (UniProt Q8WUH6)	0.916 ± 0.011	0.868 ± 0.033	0.963 ± 0.037	0.913 ± 0.04	0.903 ± 0.092	0.882 ± 0.03	0.908 ± 0.041	0.916 ± 0.034
MARS2 (UniProt Q96GW9)	1.03 ± 0.033	1.05 ± 0.053	0.943 ± 0.096	0.967 ± 0.05	0.991 ± 0.052	0.937 ± 0.037	0.938 ± 0.079	0.917 ± 0.073

Whole records, quoted from the list. Values in the order: NP40-soluble protein abundance (concentration: 0.1mM)	NP40-soluble protein abundance (concentration: 0.5mM)	NP40-soluble protein abundance (concentration: 1mM)	NP40-soluble protein abundance (concentration: 2mM)	NP40-soluble protein abundance (concentration: 4mM)	NP40-soluble protein abundance (concentration: 6mM)	NP40-soluble protein abundance (concentration: 8mM)	NP40-soluble protein abundance (concentration: 10mM)
VCPIP1 (UniProt Q96JH7) is listed as 1.02 ± 0.016	1.07 ± 0.036	1.07 ± 0.025	1.08 ± 0.036	1.062 ± 0.0062	1.04 ± 0.039	1.04 ± 0.059	1.04 ± 0.017
JARID2 (UniProt Q92833) is listed as 0.971 ± 0.078	1.07 ± 0.11	1.09 ± 0.088	1.08 ± 0.087	1.05 ± 0.04	1.05 ± 0.088	1.18 ± 0.04	1.15 ± 0.026
